Measurements from doi:10.1101/2025.08.01.668046.
Changes are numbered by the printed parent chain. Read-outs that look alike come from different tables or passages of the source. Results are given in words; binding and its absence hold for the method and conditions named. In cells and extracts the contact can be indirect. Some entries that bind do so weakly or less than the wild type. Tags and fused reporters may be left off the sequences shown.

Chains of the proteins cited; added tags and fusions are not shown. Residues count along the entry.
UniProt Q9XEB5, residues 1-117: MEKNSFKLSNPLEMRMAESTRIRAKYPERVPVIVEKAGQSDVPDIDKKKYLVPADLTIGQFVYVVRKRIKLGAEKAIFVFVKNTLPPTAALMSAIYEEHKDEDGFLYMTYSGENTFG

Tests used:
Assay in all cases: pull-down
GST-ATG8A (Arabidopsis) [1] = biological target: T1, GST-ATG8A (Arabidopsis) (UniProt Q8LEM4)
T1 sequence: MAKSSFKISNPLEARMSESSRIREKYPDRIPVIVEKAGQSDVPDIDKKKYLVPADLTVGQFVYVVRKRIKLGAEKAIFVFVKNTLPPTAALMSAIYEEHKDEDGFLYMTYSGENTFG

ATG8D (Arabidopsis) = biological target: T2, ATG8D (Arabidopsis) (UniProt Q9SL04)
T2 sequence: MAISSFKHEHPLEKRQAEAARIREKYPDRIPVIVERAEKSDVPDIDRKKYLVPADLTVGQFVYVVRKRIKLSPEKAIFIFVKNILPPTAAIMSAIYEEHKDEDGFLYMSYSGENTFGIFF

ATG8I (Arabidopsis) = biological target: T3, ATG8I (Arabidopsis) (UniProt Q9LRP7)
T3 sequence: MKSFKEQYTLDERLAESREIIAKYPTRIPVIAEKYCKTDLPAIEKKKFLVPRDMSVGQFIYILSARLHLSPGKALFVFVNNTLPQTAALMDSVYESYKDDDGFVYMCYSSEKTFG

ATG8F (Arabidopsis) = biological target: T4, ATG8F (Arabidopsis) (UniProt Q8VYK7)
T4 sequence: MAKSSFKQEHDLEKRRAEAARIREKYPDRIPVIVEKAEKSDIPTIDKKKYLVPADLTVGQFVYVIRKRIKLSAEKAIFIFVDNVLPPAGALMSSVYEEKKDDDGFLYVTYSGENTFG

ATG8C (Arabidopsis) = biological target: T5, ATG8C (Arabidopsis) (UniProt Q8S927)
T5 sequence: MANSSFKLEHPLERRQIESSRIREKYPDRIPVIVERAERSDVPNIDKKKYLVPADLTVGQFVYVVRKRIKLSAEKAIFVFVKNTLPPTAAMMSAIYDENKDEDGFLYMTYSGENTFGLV

ATG8H (Arabidopsis) = biological target: T6, ATG8H (Arabidopsis) (UniProt Q8S925)
T6 sequence: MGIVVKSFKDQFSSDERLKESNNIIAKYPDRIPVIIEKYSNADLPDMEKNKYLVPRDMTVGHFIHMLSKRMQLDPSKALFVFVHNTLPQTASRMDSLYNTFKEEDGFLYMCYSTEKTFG

ATG8G (Arabidopsis) = biological target: T7, ATG8G (Arabidopsis) (UniProt Q9LZZ9)
T7 sequence: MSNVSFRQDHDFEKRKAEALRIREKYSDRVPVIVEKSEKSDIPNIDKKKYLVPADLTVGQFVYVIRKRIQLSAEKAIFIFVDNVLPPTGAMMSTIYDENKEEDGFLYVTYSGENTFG

ATG8B (Arabidopsis) = biological target: T8, ATG8B (Arabidopsis) (UniProt Q9XEB5)
T8 sequence: T1 sequence with A2E, S4N, I8L, A14M, S17A, S20T, E24A, D28E, I30V, V58I

GST-ATG8A (Arabidopsis) [2] = biological target: T1, GST-ATG8A (Arabidopsis); remark: listed apart in the source

Measured: binding

B1: MBP-LCAT4 (protein, UniProt Q71N54 1-535)
chain: MSLLLEEIIRSVEALLKLRNRNQEPYVDPNLNPVLLVPGIAGSILNAVDHENGNEERVWVRIFGADHEFRTKMWSRFDPSTGKTISLDPKTSIVVPQDRAGLHAIDVLDPDMIVGRESVYYFHEMIVEMIGWGFEEGKTLFGFGYDFRQSNRLQETLDQFAKKLETVYKASGEKKINVISHSMGGLLVKCFMGLHSDIFEKYVQNWIAIAAPFRGAPGYITSTLLNGMSFVNGWEQNFFVSKWSMHQLLIECPSIYELMCCPYFKWELPPVLELWREKESNDGVGTSYVVLESYCSLESLEVFTKSLSNNTADYCGESIDLPFNWKIMEWAHKTKQVLASAKLPPKVKFYNIYGTNLETPHSVCYGNEKMPVKDLTNLRYFQPTYICVDGDGTVPMESAMADGLEAVARVGVPGEHRGILNDHRVFRMLKKWLNVGEPDPFYNPVNDYVILPTTYEFEKFHENGLEVASVKESWDIISDDNNIGTTGSTVNSISVSQPGDDQNPQAEARATLTVQPQSDGRQHVELNAVSVSVDA
binds: all assays above
